Values from PubChem BioAssay AID652243 (Drosophila RNAi Screening Center, 2013)
Screen: 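Fly regulators of androgen-dependent reporter output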 (primary screen). Cell system: Drosophila S2R+ cells. Reagent: long dsRNA against Drosophila genes. Timing: 72 h (48 h, then 24 h hormone). Challenge: synthetic androgen R1881 at 10 nM for 24 h. Measurement: 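Per-well raw luminescence of the androgen-driven firefly reporter and of the Renilla control, two replicates each, without normalisation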. Direction: firefly reporter light: higher = more light from androgen-responsive reporter; Renilla control light: higher = more constitutive control signal (cell number, transfection). Call rule: 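Hit when the log firefly-to-Renilla ratio dropped or increased by a fixed fold versus the mean of GFP or LacZ controls across duplicate plates; lowering cut given as 1.5 and as 3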. Meaning of the calls: active = hit: reporter lowered or raised; inactive = no hit.
The screen tested about 24,000 reagents; this is a random part of those with a known target gene and a result. In the full data, 246 (1%) are marked active. 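Plates not normalised; calls are printed but the firefly/Renilla ratio behind them is not deposited; fold cut for lowering reported inconsistently.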 Raw values vary from plate to plate and are shown uncorrected. Not stated in the record: the amount of reagent.

{"gene": "CG32719 (GeneID 318169)", "dsRNA": "DRSC17525", "firefly reporter light, replicate 1": 8.48e5, "firefly reporter light, replicate 2": 5.56e5, "Renilla control light, replicate 1": 1.25e6, "Renilla control light, replicate 2": 1.04e6, "outcome": "inactive"}
{"gene": "CG32719 (GeneID 318169)", "dsRNA": "DRSC26765", "firefly reporter light, replicate 1": 3.28e5, "firefly reporter light, replicate 2": 3.42e5, "Renilla control light, replicate 1": 4.57e5, "Renilla control light, replicate 2": 6.03e5, "outcome": "inactive"}
{"gene": "Ahcy (GeneID 32471)", "dsRNA": "DRSC19329", "firefly reporter light, replicate 1": 1.10e5, "firefly reporter light, replicate 2": 83529, "Renilla control light, replicate 1": 4.79e5, "Renilla control light, replicate 2": 4.27e5, "outcome": "inactive"}
{"gene": "Ahcy (GeneID 32471)", "dsRNA": "DRSC27304", "firefly reporter light, replicate 1": 4.19e5, "firefly reporter light, replicate 2": 3.01e5, "Renilla control light, replicate 1": 8.80e5, "Renilla control light, replicate 2": 6.68e5, "outcome": "inactive"}
{"gene": "CG5555 (GeneID 42302)", "dsRNA": "DRSC15834", "firefly reporter light, replicate 1": 73272, "firefly reporter light, replicate 2": 49257, "Renilla control light, replicate 1": 6.29e5, "Renilla control light, replicate 2": 6.12e5, "outcome": "inactive"}
{"gene": "fzr (GeneID 45922)", "dsRNA": "DRSC18781", "firefly reporter light, replicate 1": 4.49e5, "firefly reporter light, replicate 2": 4.63e5, "Renilla control light, replicate 1": 2.01e6, "Renilla control light, replicate 2": 2.27e6, "outcome": "inactive"}
{"gene": "fzr (GeneID 45922)", "dsRNA": "DRSC28236", "firefly reporter light, replicate 1": 3.91e5, "firefly reporter light, replicate 2": 7.57e5, "Renilla control light, replicate 1": 8.56e5, "Renilla control light, replicate 2": 1.27e6, "outcome": "inactive"}
{"gene": "Lgr1 (GeneID 42133)", "dsRNA": "DRSC16675", "firefly reporter light, replicate 1": 1.14e5, "firefly reporter light, replicate 2": 1.12e5, "Renilla control light, replicate 1": 1.40e6, "Renilla control light, replicate 2": 1.19e6, "outcome": "inactive"}
{"gene": "CG4768 (GeneID 32666)", "dsRNA": "DRSC19917", "firefly reporter light, replicate 1": 5.36e5, "firefly reporter light, replicate 2": 4.00e5, "Renilla control light, replicate 1": 1.65e6, "Renilla control light, replicate 2": 1.50e6, "outcome": "inactive"}
{"gene": "pont (GeneID 53439)", "dsRNA": "DRSC17029", "firefly reporter light, replicate 1": 76317, "firefly reporter light, replicate 2": 94403, "Renilla control light, replicate 1": 1.28e6, "Renilla control light, replicate 2": 1.23e6, "outcome": "inactive"}
{"gene": "Uba5 (GeneID 32094)", "dsRNA": "DRSC19775", "firefly reporter light, replicate 1": 5.40e5, "firefly reporter light, replicate 2": 4.28e5, "Renilla control light, replicate 1": 3.75e6, "Renilla control light, replicate 2": 3.57e6, "outcome": "inactive"}
{"gene": "CR10102 (GeneID 12798454)", "dsRNA": "DRSC05963", "firefly reporter light, replicate 1": 62108, "firefly reporter light, replicate 2": 66127, "Renilla control light, replicate 1": 1.59e6, "Renilla control light, replicate 2": 1.59e6, "outcome": "inactive"}
